{"sequences": {"note": "Protein sequences, listed by entry. Tags and fused reporters are not part of them. Residues count along the entry.", "UniProt P50887, 181-299": "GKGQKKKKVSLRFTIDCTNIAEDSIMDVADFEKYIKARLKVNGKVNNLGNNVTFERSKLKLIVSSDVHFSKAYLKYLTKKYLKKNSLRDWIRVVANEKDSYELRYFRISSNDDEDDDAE"}, "source": "paper PMC8872304", "experiment_in_all_cases": "EMSA", "key": {"[1]": {"target": "RpL22 (His6-RpL22) (Drosophila melanogaster) (UniProt P50887)", "settings": "self-competition: complex lost with 5x unlabeled TERM3; EMSA with 2 ng labeled TERM3; pH and temperature not given (as previously described, ref 31); recombinant protein; residues 1-299; protein details: N-terminal His6 (pET200); label: radiolabeled"}, "[2]": {"target": "T1, RpL22/H5 polypeptide (Drosophila melanogaster) (UniProt P50887)", "T1 sequence (looked up, limits assumed)": "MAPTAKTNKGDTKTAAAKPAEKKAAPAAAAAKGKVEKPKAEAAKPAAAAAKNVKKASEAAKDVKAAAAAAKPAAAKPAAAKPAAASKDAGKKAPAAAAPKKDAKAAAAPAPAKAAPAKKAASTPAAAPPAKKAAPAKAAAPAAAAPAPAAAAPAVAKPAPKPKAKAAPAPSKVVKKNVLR", "settings": "1.2 ug protein, 2 ng DNA; EMSA with 2 ng labeled TERM3; pH and temperature not given (as previously described, ref 31); recombinant protein; protein details: pET200 tag (His6); label: radiolabeled"}, "[3]": {"target": "RpL22/L22 polypeptide (Drosophila melanogaster) (UniProt P50887)", "settings": "0.6 ug protein, 2 ng DNA; EMSA with 2 ng labeled TERM3; pH and temperature not given (as previously described, ref 31); recombinant protein; protein details: pET200 tag (His6); label: radiolabeled"}}, "note": "For at least one entry, the source does not settle the construct or the ends of the probe. For part of these data: Negatives hold for the conditions tested. For part of these data: Where a protein sequence is shown, tags need not be part of it."}
{"sequence": "AATTCATCAATCGCTGATATCAATCGCTGATATCAATCGCTGATG / CTAGAATCAGCGATTGATATCAGCGATTGATATCAGCGATTGATG [TERM3]", "values": [{"measurement": "binding result", "setting": "[1]", "value": "binds"}, {"measurement": "binding result", "setting": "[2]", "value": "binds"}, {"measurement": "binding result", "setting": "[3]", "value": "no binding"}]}
